Earlier results as cited in patent publication US20230165842A1, “NEW USES” (priority 2020, published 2023).
Read-outs that look alike come from different tables or passages of the source.

Sequences of proteins named here, by UniProt entry; tags and fusion partners are left off. Residues count along the entry.
UniProt Q9BYF1, 18-805: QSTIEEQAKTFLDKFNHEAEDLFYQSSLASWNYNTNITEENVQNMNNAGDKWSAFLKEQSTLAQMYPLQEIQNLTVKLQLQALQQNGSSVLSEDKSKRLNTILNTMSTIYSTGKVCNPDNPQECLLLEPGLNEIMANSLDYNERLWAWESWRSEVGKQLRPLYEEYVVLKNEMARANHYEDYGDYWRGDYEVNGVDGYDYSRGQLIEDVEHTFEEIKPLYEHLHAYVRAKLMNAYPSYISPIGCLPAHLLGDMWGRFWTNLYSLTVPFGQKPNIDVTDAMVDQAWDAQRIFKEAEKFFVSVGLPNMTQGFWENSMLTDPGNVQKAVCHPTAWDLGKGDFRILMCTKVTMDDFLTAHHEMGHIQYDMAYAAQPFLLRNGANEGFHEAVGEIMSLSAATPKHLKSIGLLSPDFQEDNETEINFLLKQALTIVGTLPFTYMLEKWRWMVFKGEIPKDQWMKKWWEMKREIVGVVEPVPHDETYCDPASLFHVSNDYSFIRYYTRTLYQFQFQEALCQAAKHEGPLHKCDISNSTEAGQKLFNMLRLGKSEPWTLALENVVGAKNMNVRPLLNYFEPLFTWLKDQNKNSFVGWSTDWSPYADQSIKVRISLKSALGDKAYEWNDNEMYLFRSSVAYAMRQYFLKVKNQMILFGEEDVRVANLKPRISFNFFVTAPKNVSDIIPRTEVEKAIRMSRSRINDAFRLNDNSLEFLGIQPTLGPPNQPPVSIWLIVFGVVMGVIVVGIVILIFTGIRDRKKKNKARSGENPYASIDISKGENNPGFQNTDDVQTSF

Key:
[1] = target: ACE2 (Homo sapiens, UniProt Q9BYF1)
[2] = test system: SARS-CoV-2; details: Vero E6, 2 h pre-treatment, 24 h

Compound | binding to ACE2 ([1]; cell membrane chromatography and surface plasmon resonance) | binding affinity to ACE2 ([1]; compared with loratadine) | IC50 ([2]; MOI 0.004) | IC50 ([2]; MOI 0.01)
Clc1ccc2c(c1)CCc1cccnc1C2=C1CCNCC1 [Compound 80, desloratadine] | could bind to ACE2 | much stronger | – | –
OCCN1CCN(CCCN2c3ccccc3Sc3ccc(C(F)(F)F)cc32)CC1 [Compound 33, fluphenazine] | – | – | 6.36 µM | 8.98 µM
